Measured values reported in PubChem BioAssay AID2685 (National Center for Advancing Translational Sciences (NCATS), 2010).
This is one part of the list. Shown are side measurements of this screen, not its main read-out; they come without a call. Compounds called inactive in the main read-out are mostly missing here. Potencies come from curve fits of mixed quality, noted in brackets.

Experiment: qHTS Assay for Lipid Storage Modulators in Drosophila S3 Cells;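 on cell number change: cells counted by Cell Tracker Red CMTPX staining in the red channel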
Settings: BODIPY lipid droplet fluorescence, 18-24 h; for cell number change: measured here: cell count max response, cells fed with added oleic acid
How it was run: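 Laser-scanning cytometry quantifies lipid droplet accumulation (500–530 nm total intensity; droplet/cell object ratio) in oleic acid-fed (400 uM added) Drosophila S3 cells treated with a concentration series. 20 uM Triacsin C defined 100% inhibition.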

[1] = measured here: cell number channel AC50, cells fed with added oleic acid
[2] = measured here: lipid fluorescence (Fed channel) AC50, cells fed with added oleic acid

SMILES	cell number change	AC50 [1]	AC50 [2]
O=C1CN(c2cc(Cl)cc(Cl)c2)C(=O)CN1/N=C/c1cccnc1	-47.6%	25.9 µM [falling, single point]	
O=C(COC(=O)Cc1c[nH]c2ccccc12)NC1CCS(=O)(=O)C1 (stereo unspecified)	-8.5%		
COc1cc(/C=N\NC(=O)Cn2nnc3ccccc32)cc(OC)c1OC	83.9%	20.6 µM [rising, single point]	
O=C(CCN1C(=O)/C(=C/c2ccccc2)SC1=S)NNC(=O)c1cccnc1	37.6%	2.31 µM [rising, full curve]	18.4 µM [rising, partial curve]
COC(=O)c1scc(C)c1NC(=O)C(Cl)c1ccccc1 (stereo unspecified)	11%	0.461 µM [rising, full curve, poor fit]	0.00461 µM [rising, full curve, poor fit]
O=C(Cn1c(C(=O)NCC2CCCO2)cc2sccc21)c1ccccc1 (stereo unspecified)	-66%	32.6 µM [falling, partial curve]	8.2 µM [falling, partial curve]
CC1=C(C#N)C2(O)C(=O)c3ccccc3C2(O)N1 (stereo unspecified)	-46.1%	0.082 µM [falling, full curve, poor fit]	
O=C(c1nnsc1S(=O)c1ccc(Cl)cc1)N1CCOCC1 (stereo unspecified)	-48%	0.411 µM [falling, full curve]	18.4 µM [falling, partial curve]
CCOC(=O)c1c(-c2ncc(C(F)(F)F)cc2Cl)noc1C	-1.51%	3.66 µM [falling, single point]	5.8 µM [falling, partial curve]
Cc1cc(OCC(=O)NC2CCCCC2)ccc1Cl	34.3%	16.4 µM [rising, single point]	16.4 µM [rising, single point]
COc1cccc(NC(=O)[C@@H]2CCCN2S(=O)(=O)c2cccc3cccnc23)c1	13.7%		4.61 µM [rising, single point]
Cc1cccc(NCc2ccc([N+](=O)[O-])s2)c1	10.5%		20.6 µM [rising, single point]
COc1ccc(-c2ccc(/C=N/NC(=O)Cc3nnc(N)s3)o2)cc1Cl	12.5%		6.51 µM [falling, single point]
CC(C)[C@H](NC(=O)N1CCn2c1nc1ccccc12)C(=O)N[C@H](C(=O)O)c1ccccc1	-3.88%		1.16 µM [falling, full curve]
COc1cc2nc(N(CCN(C)C)C(=O)c3ccc4ccccc4c3)sc2cc1OC	179%	23.1 µM [rising, single point]	29.1 µM [falling, single point]
CC1CCCC(NC(=O)CN2C(=O)NC(C)(c3ccccc3)C2=O)C1C (stereo unspecified)	14%		
N/C(COc1ncn(-c2ccccc2)n1)=N\S(=O)(=O)c1ccccc1	-2.87%	0.731 µM [rising, partial curve, poor fit]	0.731 µM [rising, partial curve, poor fit]
O=C(COC(=O)c1n[nH]c(=O)c2ccccc12)NC1CCCCC1	32.1%	0.0206 µM [rising, full curve, poor fit]	0.0366 µM [rising, full curve, poor fit]
CCCCN(C(=O)c1cccc(S(=O)(=O)N2CCN(C)CC2)c1)c1c(N)n(CC(C)C)c(=O)[nH]c1=O		6.51 µM [falling, single point]	
O=c1[nH]nc(Cc2ccccn2)c2ccccc12	3.89%		
CCOC(=O)C1=C(C)N(C)C(C)=C(C(=O)OCC)C1c1ccccc1	23.9%		25.9 µM [rising, partial curve, poor fit]
O=C(COn1nnc2ccc(S(=O)(=O)N3CCOCC3)cc21)Nc1c(F)c(F)c(F)c(F)c1F			0.58 µM [falling, single point]
CC1(C)O[C@H]2OC([C@H](O)CON3C(=O)c4ccccc4C3=O)[C@H](O)[C@H]2O1 (stereo partly specified)	0.171%		0.731 µM [falling, full curve, poor fit]
O=C(Nc1cccc(F)c1)C1CCCN(S(=O)(=O)c2cccc3cccnc23)C1 (stereo unspecified)	-17.5%		29.1 µM [falling, single point]
O=C(Cc1ccc([N+](=O)[O-])cc1)Nc1nnc(C2CC2)s1	-3.22%		8.2 µM [rising, partial curve, poor fit]
Cc1ccccc1C(=O)Oc1ccccc1N1C(=O)C2CC=CCC2C1=O (stereo unspecified)	61.1%	16.4 µM [rising, single point]	
COc1cc(C(C)=O)ccc1OCC(=O)OCC(=O)c1cc(C)n(CC2CCCO2)c1C (stereo unspecified)	13.2%		5.8 µM [rising, partial curve, poor fit]

One compound at a time, as listed above.
O=C(CCN1C(=O)/C(=C/c2ccccc2)SC1=S)NNC(=O)c1cccnc1 is listed with cell number change: 37.6%; AC50 [1]: 2.31 µM [rising, full curve]; AC50 [2]: 18.4 µM [rising, partial curve]
O=C(Cc1ccc([N+](=O)[O-])cc1)Nc1nnc(C2CC2)s1 is listed with cell number change: -3.22%; AC50 [2]: 8.2 µM [rising, partial curve, poor fit]
CCOC(=O)C1=C(C)N(C)C(C)=C(C(=O)OCC)C1c1ccccc1 is listed with cell number change: 23.9%; AC50 [2]: 25.9 µM [rising, partial curve, poor fit]

The list continues.

SMILES	cell number change	AC50 [1]	AC50 [2]
Cc1ccc(C(=O)N2CC(C)OC(C)C2)c(Cl)c1 (stereo unspecified)	-110%	16.4 µM [falling, partial curve]	
CN(c1ccc(C(=O)NCc2cccnc2)cc1)S(=O)(=O)c1ccc(Cl)cc1	12.3%	2.91 µM [rising, partial curve]	
CCn1c(=O)c(=O)n(CC)c2cc(S(=O)(=O)N3CCc4ccccc43)ccc21	0.368%		0.103 µM [falling, full curve, poor fit]
CCOC(=O)c1c(NC(=O)c2cccs2)sc2c1CCCC2	56.7%	5.8 µM [rising, full curve]	0.58 µM [rising, single point]
CCOc1ccc2cc(S(=O)(=O)n3ccnc3C)ccc2c1	-8.98%		0.103 µM [falling, full curve]
C(=N\Nc1nc2ccccc2[nH]1)/c1ccc2c(c1)OCCO2	-65.3%	29.1 µM [falling, partial curve]	
C=CCN1c2ccccc2[C@]23C[C@@H](C(=O)OC)N(C(=O)CC(C)C)C2=NC(C(=O)OC)=C(C(=O)OC)[C@H]13	-47.1%	7.31 µM [falling, partial curve]	6.51 µM [falling, full curve]
Cc1ccc(N(CC(=O)NC2CCCCC2)C(=O)Cn2nnc(-c3ccc(C)o3)n2)cc1	12.3%		29.1 µM [rising, single point]
COc1ccc(N(CC(=O)NCc2ccco2)C(=O)CCC(=O)Nc2nccs2)c(OC)c1	16.5%	0.206 µM [rising, full curve, poor fit]	
COCCCN1C(=O)C(=O)/C(=C(/O)c2ccc(OC(C)C)cc2)C1c1ccncc1 (stereo unspecified)	-3.14%		0.517 µM [rising, full curve, poor fit]
O=C(c1ccco1)N1CCN(C2CCCC2)CC1	-18.6%		1.46 µM [falling, full curve]
O=C(c1cccc(N2C(=O)C3C4C=CC(C4)C3C2=O)c1)N1CCN(c2ccc(F)cc2)CC1 (stereo unspecified)			6.51 µM [rising, partial curve, poor fit]
O=C(NC(=S)Nc1nc(-c2cccc([N+](=O)[O-])c2)cs1)c1ccccc1Cl	-34.5%	29.1 µM [falling, single point]	29.1 µM [falling, single point]
N#Cc1cccc(Cn2nnc(-c3ccccc3)n2)c1	-9.51%		32.6 µM [rising, single point]
O=C(CSc1ncn[nH]1)c1cc2ccccc2o1		0.00461 µM [falling, full curve, poor fit]	5.8 µM [falling, single point]
CCN(CC)C(=O)NC1CC2CCCC(C1)N2Cc1ccccc1 (stereo unspecified)	-19.3%		0.82 µM [falling, full curve, poor fit]
Nc1nc(SCC(=O)c2cccc([N+](=O)[O-])c2)n[nH]1	23.1%		10.3 µM [rising, partial curve]
Cc1[nH][nH]c(=O)c1C	20.2%	0.146 µM [rising, full curve, poor fit]	23.1 µM [rising, single point]
C=CCn1c(NC(=O)c2ccccc2)nc2ccccc21	-45.5%	20.6 µM [falling, single point]	
COc1ccc(N=C2C(=O)N3c4c(cccc42)C(C)=CC3(C)C)cc1	-32.8%	10.3 µM [falling, partial curve, poor fit]	13 µM [falling, single point]
CC(=O)Nc1ccc(NC(=O)C(C)OC(=O)c2cccc(S(=O)(=O)N3CCCC3)c2)cc1 (stereo unspecified)	-10.9%		11.6 µM [falling, single point]
Cc1cc(C)c(S(C)(=O)=O)c(S(=O)(=O)c2ccc(Cl)cc2)n1	7.47%		0.731 µM [rising, full curve, poor fit]
c1ccc(CCNc2ncnc3c2nnn3Cc2ccccc2)cc1	103%	7.31 µM [rising, partial curve]	2.06 µM [rising, partial curve]
O=C(CNC(=O)c1ccccc1)OCc1cc(=O)n2cc(Br)ccc2n1	20%		1.03 µM [rising, full curve, poor fit]
CCCOc1ccc(C2c3c(oc4ccccc4c3=O)C(=O)N2CCN(CC)CC)cc1OC (stereo unspecified)	36.6%	2.06 µM [rising, full curve]	
CCCCN(C(=O)CC1CCCCC1)c1c(N)n(CC(C)C)c(=O)[nH]c1=O	-37%	16.4 µM [falling, single point]	18.4 µM [falling, single point]
